# Screening data

Source: PubChem BioAssay AID1159506 (NCATS, 2015).

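Genome-wide siRNA knockdown in TC32 Ewing sarcoma cells, comparing luciferase light from an NR0B1-promoter reporter with a CMV-promoter reporter 48 hours after transfection.
Each siRNA was applied at 20 nM.
A z-score of the log NR0B1-over-CMV signal, less the median of siRNAs with the same seed; more negative means a stronger specific loss of the NR0B1 reporter.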

This is part of the screen; most of the strongest results are not listed here.
Sequences are the guide (antisense) strand, without overhang.

- UAAUUUCGUCUUCUAGCUG against TPD52L1 : seed-corrected z-score -1.001
- UCACUGUCCAUAGGGAUGA against TMEM52 : seed-corrected z-score 0.1592
- UUUCUGAAGACUGGUUCCG against ABHD16A : seed-corrected z-score -0.8423
- AGACAUGUCAUCACUGUUC against CIB4 : seed-corrected z-score -0.07772
- UUGGGUUGUACACUAGUUC against FRMD3 : seed-corrected z-score 0.1314
- UGGUAGACUCGGACACUGC against COX14 : seed-corrected z-score -0.5506
- UAACUUAGACCGUUCAUCG against DIP2A : seed-corrected z-score 0.4763
- ACCUGUUCCUCGUCCAUGG against TESC : seed-corrected z-score -0.5815
- UCUUAUCCAAGCAUAUUCC against WISP3 : seed-corrected z-score 0.4934
- UUGGUGUAGCUGACGAGCU against SLC12A4 : seed-corrected z-score -0.6743
- AUUAGAUCCAGUCACAACC against NFATC3 : seed-corrected z-score -1.226
- AAAGCGAUAGCUGUCCUGC against TBC1D1 : seed-corrected z-score 0.4701
- UUCUGAGUCACUAAAGCGC against STAT5A : seed-corrected z-score 0.7042
- UAAUACAUAAGCAUGACAC against TMEM42 : seed-corrected z-score 0.7702
- UCAUGCACAAAGUUGAUGC against PLTP : seed-corrected z-score -0.2058
- UAGAUUCUCGUACUCUUUC against TRAIP : seed-corrected z-score 0.2066
- AAUGGAAGCACAUACAUGG against PCK2 : seed-corrected z-score -0.1596
- UUAUAGAGGAUGACUGUCC against NOL11 : seed-corrected z-score 1.731
- UGUACAACAACAUACUCUC against NOL11 : seed-corrected z-score 0.2631
- AGCAGUACAAAAUCCAUGG against VPS35 : seed-corrected z-score 0.005262
- UUGAUACUAGUGAAUGACC against MAP3K2 : seed-corrected z-score 0.8343
- ACAAGUUGGACAUUUCUGC against PIN4P1 : seed-corrected z-score 0.8705
- UUGGUGUACUUGCAAACUG against LRRCC1 : seed-corrected z-score -0.7332
- AGUAGAAGAUCUUUUGUUU against SPDYE3 : seed-corrected z-score 1.55
- UAUGGUUAAAUGUUCUUUG against LOC730961 : seed-corrected z-score -0.3933
- UUUUCGAACAGCAAAUGAC against SAMM50 : seed-corrected z-score 0.2113

Repeated from the top, 3 entries:

siRNA,gene,seed-corrected z-score
UAAUUUCGUCUUCUAGCUG,TPD52L1,-1.001
UCACUGUCCAUAGGGAUGA,TMEM52,0.1592
UUUCUGAAGACUGGUUCCG,ABHD16A,-0.8423